Hit rate of the full screen: of about 140,000 compounds, about 4,300 (3.1%) were called active. Inconclusive results, whose numbers are uncertain, are shown with a selection of clear calls.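 How the source made its calls: active means readout at or below -70, meaning at least 70% loss of cells showing the perinucleolar compartment, a nuclear body marking cancer cells; inconclusive means readout between -30 and a set limit; inactive means the rest.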
experiment: High Content Assay for Compounds that inhibit the Assembly of the Perinucleolar Compartment; settings: PC3M PTB-GFP, PNC prevalence imaging, 16 h; at 10 µM; stronger effect = lower value;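 further: plate controls were DMSO wells for no effect and camptothecin positive control wells for full effect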
Method in brief: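 Read-out is percentage of cells bearing a perinucleolar compartment, from automated 20x imaging of fixed, Hoechst-stained PC3M PTB-GFP cells. Cells were seeded 4 h, then exposed 16 h to compound (23 nl of library stock) in duplicate plates.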

Question: With `CCCCN(C)C(=O)CCCCn1c(=O)[nH]c2cc(OCC)c(OCC)cc2c1=O` as the compound, how does the activity change (PNC), negative = inhibition read?
Answer: inconclusive: -59.5%

Question: With `CCN(CC)c1ccc(NC(=O)COc2ccc(C#N)cc2)cc1S(=O)(=O)Nc1ccc(OC)cc1` as the compound, how does the activity change (PNC), negative = inhibition read?
Answer: inactive: 18.7%

Question: Which activity change (PNC), negative = inhibition does the source give for `COc1ccc(NC2=C(NCCO)C(=O)c3ccccc3C2=O)cc1` here?
Answer: inconclusive: -40.6%

Question: Which activity change (PNC), negative = inhibition does the source give for `Cc1onc(-c2ccccc2Cl)c1C(=O)NCCN1Cc2ccccc2C1=O` here?
Answer: inconclusive: -40.7%

Question: For `CC(C)CNC(=S)NNC(=O)c1nn(C)cc1Cl`, which activity change (PNC), negative = inhibition is on record?
Answer: active: -100%

Question: Which activity change (PNC), negative = inhibition does the source give for `Cc1cc(NC(=O)CSc2nc(-c3cccs3)cc(C(F)(F)F)n2)no1` here?
Answer: active: -96.8%

Question: Which activity change (PNC), negative = inhibition does the source give for `CC(NC(=O)c1ccc(Cl)cc1)C(=O)N1CCCCC1` (stereo not given) here?
Answer: inconclusive: -58.7%

Question: Which activity change (PNC), negative = inhibition does the source give for `Cc1ccc(S(=O)(=O)NC(=O)NCc2ccccc2)cc1` here?
Answer: inconclusive: -54.3%

Question: With `O=C(CCCN1C(=O)c2ccccc2C1=O)OC1CSCC1NC(=O)c1ccccc1` (stereo not given) as the compound, how does the activity change (PNC), negative = inhibition read?
Answer: inconclusive: -50.7%

Question: With `Oc1c(C(c2cccs2)N2CCN(c3cccc(Cl)c3)CC2)sc2ncnn12` (stereo not given) as the compound, how does the activity change (PNC), negative = inhibition read?
Answer: inconclusive: -30.1%

Question: With `O=C1C2C3C=CC(C3)C2C(=O)N1c1ccc(Cc2ccncc2)cc1` (stereo not given) as the compound, how does the activity change (PNC), negative = inhibition read?
Answer: inconclusive: -34.1%

Question: For `CCc1ccc(NC(=O)N(C2CCCCC2)C(C)c2cccnc2)cc1` (stereo not given), which activity change (PNC), negative = inhibition is on record?
Answer: inactive: 24.6%

Question: With `CCN(CC)S(=O)(=O)c1cc(NC(=O)CSc2nc3c(cc2C#N)C(=O)CC(C)(C)C3)ccc1C` as the compound, how does the activity change (PNC), negative = inhibition read?
Answer: active: -96%

Question: For `COCCn1c(SCC(=O)N2CCCCC2)nc2cccnc21`, which activity change (PNC), negative = inhibition is on record?
Answer: active: -82.9%

Question: Which activity change (PNC), negative = inhibition does the source give for `CC(C)n1c(=S)[nH]c2ccccc2c1=O` here?
Answer: inconclusive: -51.9%

Question: Which activity change (PNC), negative = inhibition does the source give for `Cc1cccc(-c2nnc(SCc3nc4ccccc4[nH]3)n2Cc2ccco2)c1` here?
Answer: inactive: -8.87%

Question: For `CCOC(=O)Cn1c(=NC(=O)CSC(C)=O)sc2cc(OC)ccc21`, which activity change (PNC), negative = inhibition is on record?
Answer: inconclusive: -59.1%

Question: With `COC(=O)c1sc(-c2ccccc2)cc1NC(=O)c1ccc(F)cc1` as the compound, how does the activity change (PNC), negative = inhibition read?
Answer: inconclusive: -33%

Question: Which activity change (PNC), negative = inhibition does the source give for `O=C(Cc1cccc2ccccc12)OCn1nnc2ccccc2c1=O` here?
Answer: inactive: -1.99%

Question: Which activity change (PNC), negative = inhibition does the source give for `COc1ccccc1NC(=S)NCCSc1ccc(C)cc1` here?
Answer: inconclusive: -44.3%

Question: For `CC1(C)CC(=O)C(C=Nc2ccc(O)cc2)=C(O)C1`, which activity change (PNC), negative = inhibition is on record?
Answer: inactive: -26.7%

Question: Which activity change (PNC), negative = inhibition does the source give for `COc1ccc(C(C(=O)NCc2ccccc2)N(Cc2ccc3c(c2)OCO3)C(=O)c2cnccn2)cc1` (stereo not given) here?
Answer: inconclusive: -34.9%

Question: With `CCS(=O)(=O)n1nc(-c2ccccc2)nc1SCc1ccccc1` as the compound, how does the activity change (PNC), negative = inhibition read?
Answer: inconclusive: -38.5%

Question: With `Cc1ccc(Cn2ccc(NC(=O)c3nn(C)cc3Cl)n2)cc1` as the compound, how does the activity change (PNC), negative = inhibition read?
Answer: inconclusive: -36.1%

Question: For `CCOC(=O)c1cc(NC(=O)N(C(C)C)C(C)C)c(C)nc1C`, which activity change (PNC), negative = inhibition is on record?
Answer: inactive: 37%

Question: With `Clc1ccc2nc(CSc3nc4ccccc4o3)cn2c1` as the compound, how does the activity change (PNC), negative = inhibition read?
Answer: inconclusive: -37.8%

Question: Which activity change (PNC), negative = inhibition does the source give for `Cc1cc(C2=CC(C)(c3cc(C)oc3C)Nc3nc(C(F)(F)F)nn32)c(C)o1` (stereo not given) here?
Answer: inactive: 35.8%

Question: Which activity change (PNC), negative = inhibition does the source give for `Cc1ccc(C)c(N2CCN(C(=O)c3ccc(CSc4nc5ccncc5[nH]4)cc3)CC2)c1` here?
Answer: inactive: 12.4%

Question: Which activity change (PNC), negative = inhibition does the source give for `CC(SCc1cn2cc(Cl)ccc2n1)C(=O)O` (stereo not given) here?
Answer: inconclusive: -38.3%

Question: Which activity change (PNC), negative = inhibition does the source give for `Cn1c(CN2CCCC2)nc2cc(NC(=O)Nc3ccccc3)ccc21` here?
Answer: inconclusive: -32.3%

Question: With `c1ccc2sc(Nc3nc4cc5c(cc4s3)OCO5)nc2c1` as the compound, how does the activity change (PNC), negative = inhibition read?
Answer: active: -124%

Question: For `O=C(NCCCN1CCCC1=O)c1ccc2c(c1)NC(=O)c1ccccc1S2`, which activity change (PNC), negative = inhibition is on record?
Answer: inconclusive: -35.1%

Question: With `COCCCNCC(=O)Nc1ccc(OC(F)(F)F)cc1` as the compound, how does the activity change (PNC), negative = inhibition read?
Answer: inactive: 17.7%

Question: Which activity change (PNC), negative = inhibition does the source give for `CCCCCCCN(C(=O)CCl)c1ccccc1C` here?
Answer: inconclusive: -31.3%

Question: With `CCOC(=O)c1cc2c(=O)n3ccccc3nc2n(CCOC)c1=NC(=O)C(C)(C)C` as the compound, how does the activity change (PNC), negative = inhibition read?
Answer: inconclusive: -37.7%

Question: Which activity change (PNC), negative = inhibition does the source give for `O=C(CSc1nc2ccccc2c(=O)n1Cc1ccco1)NCc1ccco1` here?
Answer: inactive: 83.8%

Question: Which activity change (PNC), negative = inhibition does the source give for `CN1CCN(NC(=O)c2ccc(Br)c(S(=O)(=O)N3CCOCC3)c2)CC1` here?
Answer: inconclusive: -41.3%

Question: For `CSCCC(Nc1ccc(S(=O)(=O)N2CCOCC2)cc1[N+](=O)[O-])C(=O)OCC(=O)NCC(C)C` (stereo not given), which activity change (PNC), negative = inhibition is on record?
Answer: inactive: -1.87%

Question: For `O=C(CSc1ccccn1)c1ccc(F)cc1`, which activity change (PNC), negative = inhibition is on record?
Answer: inconclusive: -68.3%

Question: With `CCOC(=O)Cn1nnc(-c2ccccc2)n1` as the compound, how does the activity change (PNC), negative = inhibition read?
Answer: active: -100%

Question: For `CC(C)C(=O)NNC(=O)CSc1nc(C2CCCCC2)nc2ccccc12`, which activity change (PNC), negative = inhibition is on record?
Answer: inconclusive: -30.8%

Question: Which activity change (PNC), negative = inhibition does the source give for `CC(C)CN(C(=O)COC(=O)c1cc2c(s1)CCC2)C1CCS(=O)(=O)C1` (stereo not given) here?
Answer: inconclusive: -35.6%

Question: For `COC(=O)C(Cc1ccccc1)NC(=O)C12CC3CC(CC(C3)C1)C2` (stereo not given), which activity change (PNC), negative = inhibition is on record?
Answer: inconclusive: -34.5%

Question: With `O=C(NCc1ccco1)c1cnn2c(C(F)(F)F)cc(-c3ccco3)nc12` as the compound, how does the activity change (PNC), negative = inhibition read?
Answer: inconclusive: -37.5%

Question: With `Oc1ccccc1/C=N/Nc1ccccc1` as the compound, how does the activity change (PNC), negative = inhibition read?
Answer: inactive: 61%

— PubChem BioAssay AID2417 (National Center for Advancing Translational Sciences (NCATS), 2010)
